Data on one molecule can be found in article PMC10743472.

Protein sequences, listed by entry. Tags and fused reporters are not part of them. Residues count along the entry.
UniProt Q9JHS4, residues 57-634: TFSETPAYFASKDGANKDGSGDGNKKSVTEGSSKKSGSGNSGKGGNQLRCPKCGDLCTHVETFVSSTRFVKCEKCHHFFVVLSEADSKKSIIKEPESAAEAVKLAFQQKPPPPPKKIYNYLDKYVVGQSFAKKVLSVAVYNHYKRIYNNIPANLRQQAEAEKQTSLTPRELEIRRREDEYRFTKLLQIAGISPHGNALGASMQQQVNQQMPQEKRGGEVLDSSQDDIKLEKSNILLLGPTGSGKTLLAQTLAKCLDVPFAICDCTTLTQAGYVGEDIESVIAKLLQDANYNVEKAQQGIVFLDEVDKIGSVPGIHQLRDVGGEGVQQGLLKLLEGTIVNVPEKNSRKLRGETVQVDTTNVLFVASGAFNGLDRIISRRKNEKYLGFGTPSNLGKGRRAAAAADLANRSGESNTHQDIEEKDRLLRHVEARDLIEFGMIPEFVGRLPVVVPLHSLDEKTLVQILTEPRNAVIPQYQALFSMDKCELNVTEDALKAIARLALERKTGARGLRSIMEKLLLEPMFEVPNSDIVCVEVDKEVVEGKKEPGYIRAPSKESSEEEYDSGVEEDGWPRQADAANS

These are yes or no findings as the source states them, for the method shown. Binding seen in cells or lysates may run through a third protein. Some results given as binding are weak or reduced against the parent protein; the word gives no strength.

This test addresses CLPX, specificity component of Clp protease complex, AAA+ ATPase (mouse (endogenous in mouse tissues)) (UniProt Q9JHS4). Put plainly: co-IP; mouse liver mitochondrial fractions, WT and CLPP-null; pull with anti-CLPX (Invitrogen) on Dynabeads, lysis buffer with 1% NP40, 137 mM NaCl, pH 8.0; immunoblot of endogenous proteins.

B1: OAT, ornithine delta-aminotransferase, mitochondrial (enzyme, UniProt P29758 26-439)
chain: TSVATKKTEQGPPSSEYIFERESKYGAHNYHPLPVALERGKGIYMWDVEGRQYFDFLSAYGAVSQGHCHPKIIDAMKSQVDKLTLTSRAFYNNVLGEYEEYITKLFNYNKVLPMNTGVEAGETACKLARRWGYTVKGIQKYKAKIVFADGNFWGRTLSAISSSTDPTSYDGFGPFMPGFETIPYNDLPALERALQDPNVAAFMVEPIQGEAGVIVPDPGYLTGVRELCTRHQVLFIADEIQTGLARTGRWLAVDHENVRPDMVLLGKALSGGLYPVSAVLCDDEIMLTIKPGEHGSTYGGNPLGCRIAIAALEVLEEENLAENADKMGAILRKELMKLPSDVVTSVRGKGLLNAIVIRETKDCDAWKVCLRLRDNGLLAKPTHGDIIRLAPPLVIKEDEIRESVEIINKTILSF
Regarding B1, the binding result was “binds”.
